Data reported in publication PMC12440823.
These are yes or no findings as the source states them, for the method shown. Binding seen in cells or lysates may run through a third protein. Here binding means that the protein was enriched with, or labelled near, the bait; the list need not be complete. Sequences can lack the tags named with a protein.

Target: T1, FLAG-tagged Ada3 (S. cerevisiae) (UniProt P32494)
T1 sequence: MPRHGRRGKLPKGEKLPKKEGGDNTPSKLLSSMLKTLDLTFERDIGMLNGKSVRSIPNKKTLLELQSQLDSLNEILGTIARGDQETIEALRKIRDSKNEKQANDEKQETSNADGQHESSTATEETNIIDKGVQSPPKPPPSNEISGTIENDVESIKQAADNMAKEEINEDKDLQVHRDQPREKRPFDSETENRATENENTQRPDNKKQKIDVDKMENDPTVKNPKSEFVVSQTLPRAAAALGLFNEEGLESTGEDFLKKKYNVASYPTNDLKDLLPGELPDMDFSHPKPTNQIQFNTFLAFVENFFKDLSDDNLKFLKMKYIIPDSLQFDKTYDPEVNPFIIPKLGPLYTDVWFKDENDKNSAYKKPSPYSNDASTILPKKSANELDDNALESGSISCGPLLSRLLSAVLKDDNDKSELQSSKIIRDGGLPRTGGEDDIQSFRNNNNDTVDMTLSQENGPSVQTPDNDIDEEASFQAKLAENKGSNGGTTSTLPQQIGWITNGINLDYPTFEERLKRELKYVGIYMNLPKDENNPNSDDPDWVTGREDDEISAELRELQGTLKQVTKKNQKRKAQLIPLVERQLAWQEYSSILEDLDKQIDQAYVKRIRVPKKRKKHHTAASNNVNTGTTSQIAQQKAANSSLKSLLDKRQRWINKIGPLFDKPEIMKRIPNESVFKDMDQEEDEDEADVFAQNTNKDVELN
Assay: affinity purification with mass spectrometry; Ada3-3xFLAG captured on anti-FLAG-M2 beads (3 h, 4 °C) from benzonase-treated, precleared yeast lysate; cells grown under control conditions or 200 mM HU for 2 h; untagged BY4741 as background; interactors called by SAINT probability of 1

binding: binds
B1: SAGA subunit Spt8 (protein, UniProt P38915 1-602)
chain: MDEVDDILINNQVVDDEEDDEEMLSGLENDSKQDLEGNDDGGEDEEDDDDDDEDDDDDEDEREDDDEQEDDDGEDDAARMDKTATPTNEHQHDEQKAAAAGAGGAGDSGDAVTKIGSEDVKLSDVDGGVGSREASSSTHEASANGEVYEYYKHMLNAAQIADSYNIYPTAAIPIQTHVNALAVSRGLKYLFLGGSDGYIRKYDLLNTLEGKLSLTILQKHSLAESIQNAGILQSYWENEIPQKKSEMKLSANKTDYEPKVSPVHSLEVQSECLFILSGLQNGGITMQGVRYMEGSIAHYFKGRNGHTQIVNILRLNGQEDRFLSGSWDKRLLEWDLQTGDIVNEFKKSRSELSSLEMRPLYSSVDVSGNVNSGKENENADDDMDSLFGDEDEDEKQDAGNEPVETGDGSNGEENKEQISEESLNIVYDESVFMTSGLNGSVHIWDRRMTQSPALSLERGAGVPPWCLSACWGVDGDHVYAGRRNACVEQFDLKMPSKPIHNLKLPSISGPVSCVKAMPNNKHLLCASRDNIRLYNVEIAVDASNSTTKSSKVPFLIVPGHHGGIISNLYLDPTSRFIISTSGNRGWQGNSTDTTLIYDIDLE
